In publication doi:10.1101/2021.05.12.443731:
Results are given in words; binding and its absence hold for the method and conditions named. Binding seen in cells or lysates may run through a third protein. Here binding means that the protein was enriched with, or labelled near, the bait; the list need not be complete. Values belong to the binder of their own block, whether it stands above or below them.

How the values were obtained:
Assay in all cases: affinity purification with mass spectrometry
[1] = molecular target: T1, FOSL1 (human (endogenous in Th17 cells)) (UniProt P15407)
T1 sequence: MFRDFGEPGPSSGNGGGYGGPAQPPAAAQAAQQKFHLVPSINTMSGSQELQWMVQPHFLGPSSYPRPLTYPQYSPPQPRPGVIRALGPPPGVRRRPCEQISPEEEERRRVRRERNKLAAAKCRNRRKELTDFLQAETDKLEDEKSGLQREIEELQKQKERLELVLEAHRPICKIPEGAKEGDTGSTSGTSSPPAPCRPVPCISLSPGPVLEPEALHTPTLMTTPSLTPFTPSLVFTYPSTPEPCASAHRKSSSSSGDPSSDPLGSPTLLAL

[2] = molecular target: T2, FOSL2 (human (endogenous in Th17 cells)) (UniProt P15408)
T2 sequence: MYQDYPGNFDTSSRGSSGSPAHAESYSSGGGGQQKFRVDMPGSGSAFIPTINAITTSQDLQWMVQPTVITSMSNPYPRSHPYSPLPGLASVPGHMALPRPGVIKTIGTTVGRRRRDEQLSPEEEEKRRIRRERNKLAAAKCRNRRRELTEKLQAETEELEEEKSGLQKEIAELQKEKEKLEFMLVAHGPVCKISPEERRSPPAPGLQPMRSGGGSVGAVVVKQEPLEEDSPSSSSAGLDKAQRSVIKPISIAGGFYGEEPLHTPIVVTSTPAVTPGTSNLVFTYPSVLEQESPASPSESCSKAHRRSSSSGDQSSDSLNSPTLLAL

[3] = molecular target: T3, FOSL2 (human (endogenous in Th17 cells)), P15408; details: remark: other sources report otherwise
T3 chain: T2 sequence

[4] = molecular target: T4, FOSL1 (human (endogenous in Th17 cells)), P15407; details: remark: other sources report otherwise
T4 chain: T1 sequence

binding [1]: binds
binding [2]: binds
B1: ADAR (protein, UniProt P55265 1-1226)
chain: MNPRQGYSLSGYYTHPFQGYEHRQLRYQQPGPGSSPSSFLLKQIEFLKGQLPEAPVIGKQTPSLPPSLPGLRPRFPVLLASSTRGRQVDIRGVPRGVHLRSQGLQRGFQHPSPRGRSLPQRGVDCLSSHFQELSIYQDQEQRILKFLEELGEGKATTAHDLSGKLGTPKKEINRVLYSLAKKGKLQKEAGTPPLWKIAVSTQAWNQHSGVVRPDGHSQGAPNSDPSLEPEDRNSTSVSEDLLEPFIAVSAQAWNQHSGVVRPDSHSQGSPNSDPGLEPEDSNSTSALEDPLEFLDMAEIKEKICDYLFNVSDSSALNLAKNIGLTKARDINAVLIDMERQGDVYRQGTTPPIWHLTDKKRERMQIKRNTNSVPETAPAAIPETKRNAEFLTCNIPTSNASNNMVTTEKVENGQEPVIKLENRQEARPEPARLKPPVHYNGPSKAGYVDFENGQWATDDIPDDLNSIRAAPGEFRAIMEMPSFYSHGLPRCSPYKKLTECQLKNPISGLLEYAQFASQTCEFNMIEQSGPPHEPRFKFQVVINGREFPPAEAGSKKVAKQDAAMKAMTILLEEAKAKDSGKSEESSHYSTEKESEKTAESQTPTPSATSFFSGKSPVTTLLECMHKLGNSCEFRLLSKEGPAHEPKFQYCVAVGAQTFPSVSAPSKKVAKQMAAEEAMKALHGEATNSMASDNQPEGMISESLDNLESMMPNKVRKIGELVRYLNTNPVGGLLEYARSHGFAAEFKLVDQSGPPHEPKFVYQAKVGGRWFPAVCAHSKKQGKQEAADAALRVLIGENEKAERMGFTEVTPVTGASLRRTMLLLSRSPEAQPKTLPLTGSTFHDQIAMLSHRCFNTLTNSFQPSLLGRKILAAIIMKKDSEDMGVVVSLGTGNRCVKGDSLSLKGETVNDCHAEIISRRGFIRFLYSELMKYNSQTAKDSIFEPAKGGEKLQIKKTVSFHLYISTAPCGDGALFDKSCSDRAMESTESRHYPVFENPKQGKLRTKVENGEGTIPVESSDIVPTWDGIRLGERLRTMSCSDKILRWNVLGLQGALLTHFLQPIYLKSVTLGYLFSQGHLTRAICCRVTRDGSAFEDGLRHPFIVNHPKVGRVSIYDSKRQSGKTKETSVNWCLADGYDLEILDGTRGTVDGPRNELSRVSKKNIFLLFKKLCSFRYRRDLLRLSYGEAKKAARDYETAKNYFKKGLKDMGYGNWISKPQEEKNFYLCPV

binding [3]: binds
B2: JUN, P05412 1-331 (protein)
chain: MTAKMETTFYDDALNASFLPSESGPYGYSNPKILKQSMTLNLADPVGSLKPHLRAKNSDLLTSPDVGLLKLASPELERLIIQSSNGHITTTPTPTQFLCPKNVTDEQEGFAEGFVRALAELHSQNTLPSVTSAAQPVNGAGMVAPAVASVAGGSGSGGFSASLHSEPPVYANLSNFNPGALSSGGGAPSYGAAGLAFPAQPQQQQQPPHHLPQQMPVQHPRLQALKEEPQTVPEMPGETPPLSPIDMESQERIKAERKRMRNRIAASKCRKRKLERIARLEEKVKTLKAQNSELASTANMLREQVAQLKQKVMNHVNSGCQLMLTQQLQTF

binding [4]: binds
B3: JUNB, P17275 1-347 (protein)
chain: MCTKMEQPFYHDDSYTATGYGRAPGGLSLHDYKLLKPSLAVNLADPYRSLKAPGARGPGPEGGGGGSYFSGQGSDTGASLKLASSELERLIVPNSNGVITTTPTPPGQYFYPRGGGSGGGAGGAGGGVTEEQEGFADGFVKALDDLHKMNHVTPPNVSLGATGGPPAGPGGVYAGPEPPPVYTNLSSYSPASASSGGAGAAVGTGSSYPTTTISYLPHAPPFAGGHPAQLGLGRGASTFKEEPQTVPEARSRDATPPVSPINMEDQERIKVERKRLRNRLAATKCRKRKLERIARLEDKVKTLKAENAGLSSTAGLLREQVAQLKQKVMTHVSNGCQLLLGVKGHAF
